Reference: PubChem BioAssay AID743454 (Peter MacCallum Cancer Centre, 2014)
Shown is a random part of about 18,000 reagents. Over the whole deposit, 450 (2.5%) are marked active. 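Single biological run; no consistent viability z cut-off exists, so the class columns, not z-scores, define the calls.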 Reagents against one gene are numbered here.

Assay: 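Genes whose loss kills vorinostat-resistant colon cancer cells under vorinostat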 (primary screen)
System: human HCT116-VR colon cancer cells, selected for vorinostat resistance
Knock-down reagent: siRNA pool against human genes, 40 nM siRNA pool
Time to read-out: vorinostat for 24 h, read-out about 72 h after transfection
Conditions: vorinostat at 2.5 µM final
Detection: 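Cell viability by CellTiter-Fluor and caspase 3/7 activity by luminescence, each scaled to mock wells per plate, duplicates averaged, then robust z-scored over all plates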
Direction: viability robust z-score: higher = more viable cells than screen typical; caspase robust z-score: higher = more caspase 3/7 activity than screen typical
Call rule: 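Hits are knock-downs in viability class RV1/RV2 or caspase class CA1/CA2, excluding ones that killed cells in the no-drug cell-count arm; hits then retested with single siRNAs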

| gene | reagent no. | viability hit class | caspase hit class | viability robust z-score | caspase robust z-score | outcome |
| --- | --- | --- | --- | --- | --- | --- |
| PALMD | 1 | no change | no change | 0.24 | 0.2 | inactive |
| ZNF396 | 1 | no change | no change | -0.72 | -0.92 | inactive |
| PDIA6 | 1 | no change | no change | -0.24 | -0.34 | inactive |
| BAG3 | 1 | no change | no change | -0.06 | -0.7 | inactive |
| SUGP1 | 1 | no change | no change | -2.67 | 0.9 | inactive |
| TMEM182 | 1 | no change | no change | 0.38 | -0.94 | inactive |
| NKX6-3 | 1 | no change | CA2 (caspase activation) | -2.56 | 6.73 | active |
| CERK | 1 | no change | no change | 1.14 | -0.22 | inactive |
| SPATA31E1 | 1 | no change | no change | 0.07 | 1.88 | inactive |
| RPS4Y2 | 1 | no change | no change | 1.15 | 2.21 | inactive |
| TTC5 | 1 | no change | no change | 0.74 | -0.44 | inactive |
| DDI2 | 1 | no change | no change | -0.26 | 0.68 | inactive |
| DDI2 | 2 | no change | no change | 0.76 | -0.36 | inactive |
| SEM1 | 1 | no change | no change | -1.27 | 2.05 | inactive |
| CAMKV | 1 | no change | no change | -1.02 | 0.64 | inactive |
| PRPS1L1 | 1 | no change | no change | 0.43 | -0.36 | inactive |
| SERTAD2 | 1 | no change | no change | -2.29 | -0.5 | inactive |
| MYO1G | 1 | no change | no change | -0.62 | 1.81 | inactive |
| XPO6 | 1 | no change | no change | -0.1 | -0.06 | inactive |
| LRIT3 | 1 | no change | no change | -0.14 | -1.07 | inactive |
| CSMD2 | 1 | no change | no change | 0.3 | -0.43 | inactive |
| SLC26A10P | 1 | no change | no change | 0.02 | -0.29 | inactive |

4 of these entries in another layout.
{"gene":"PRPS1L1","reagent no.":1,"viability hit class":"no change","caspase hit class":"no change","viability robust z-score":0.43,"caspase robust z-score":-0.36,"outcome":"inactive"}
{"gene":"SERTAD2","reagent no.":1,"viability hit class":"no change","caspase hit class":"no change","viability robust z-score":-2.29,"caspase robust z-score":-0.5,"outcome":"inactive"}
{"gene":"MYO1G","reagent no.":1,"viability hit class":"no change","caspase hit class":"no change","viability robust z-score":-0.62,"caspase robust z-score":1.81,"outcome":"inactive"}
{"gene":"XPO6","reagent no.":1,"viability hit class":"no change","caspase hit class":"no change","viability robust z-score":-0.1,"caspase robust z-score":-0.06,"outcome":"inactive"}

Next entries follow.
| gene | reagent no. | viability hit class | caspase hit class | viability robust z-score | caspase robust z-score | outcome |
| --- | --- | --- | --- | --- | --- | --- |
| OSMR | 1 | no change | no change | -0.07 | -0.62 | inactive |
| GABRG1 | 1 | no change | no change | 0.2 | 1.76 | inactive |
| GNG12 | 1 | no change | no change | -0.58 | 0.19 | inactive |
| ZNF99 | 1 | no change | no change | 0.94 | -0.66 | inactive |
| MAPKAPK5 | 1 | no change | no change | 0.28 | -0.3 | inactive |
| B4GALT6 | 1 | no change | no change | 0.36 | -0.72 | inactive |
| FBXO24 | 1 | no change | no change | 0.11 | -0.68 | inactive |
| LMAN2 | 1 | no change | no change | -0.24 | 0.98 | inactive |
| MLEC | 1 | no change | no change | -1.58 | -0.78 | inactive |
| VWA5A | 1 | no change | no change | 0.43 | -0.16 | inactive |
| EDF1 | 1 | no change | no change | -0.94 | 1.43 | inactive |
| DPRX | 1 | no change | no change | 1.05 | -0.44 | inactive |
| CNOT10 | 1 | no change | no change | 0.7 | 0.45 | inactive |
| ZNF483 | 1 | no change | no change | -1.51 | 0.56 | inactive |
| LRP2BP | 1 | no change | no change | -2.12 | 0.52 | inactive |
| TRIM64C | 1 | no change | no change | -1.94 | -0.12 | inactive |
| TRIM64C | 2 | no change | no change | 0.29 | -0.3 | inactive |
